In article PMC12095548:
Results are given in words; binding and its absence hold for the method and conditions named. In cells and extracts the contact can be indirect. Some entries that bind do so weakly or less than the wild type. For some assays here: Sequences can lack the tags named with a protein.

Sequences of proteins named here, by UniProt entry; tags and fusion partners are left off. A change or cut given only in a name is not applied to a line headed by its entry. Residues count along the entry.
UniProt P25586: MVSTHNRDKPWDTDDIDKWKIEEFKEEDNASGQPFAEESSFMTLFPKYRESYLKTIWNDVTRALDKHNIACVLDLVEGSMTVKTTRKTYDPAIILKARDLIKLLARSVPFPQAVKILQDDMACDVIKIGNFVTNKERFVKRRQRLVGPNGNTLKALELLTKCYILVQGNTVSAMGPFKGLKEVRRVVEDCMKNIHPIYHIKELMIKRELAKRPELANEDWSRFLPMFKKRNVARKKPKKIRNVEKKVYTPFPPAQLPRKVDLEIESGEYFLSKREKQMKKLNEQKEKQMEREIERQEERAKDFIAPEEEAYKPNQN
Krr1ΔC3-FLAG (Saccharomyces cerevisiae (yeast)): residues 1-247 of P25586

B1: Mrd1 (protein, UniProt Q06106 1-887)
chain: MSRIIVKGLPVYLTDDNLREHFTKRLRQKHSHQAVNGSGPDLITDVKILRDRNGESRRFGFIGYRNEEDAFDAVEYFNGSFINTSKIEVSMAKSFADPRVPQPMKEKRREALKRFREKEEKLLQEENRKKKKVDENKHSNIDDEIRKNKQLQEFMETMKPSSQVTSWEKVGIDKSIEDEKLKREEEDSSVQGNSLLAHALALKEENNKDEAPNLVIENESDDEYSALNRNRDEDQEDAGEEEKMISISNLKDTDIGLVNDDANSDEKENEKRRNLAQDEKVSDLDWFKQRRVRIKESEAETREKSSSYATEQNESLDTKKEEQPERAVPQKTDEELAIEKINQTGRLFLRNILYTSKEEDFRKLFSPFGELEEVHVALDTRTGQSKGFAYVLFKDSKNAVNAYVELDKQIFQGRLLHILPGEEKKSHRLDEFDLKNMPLKKQKELKRKAAASRQTFSWNSLYMNQDAVLGSVAAKLGLEKSQLIDAENSSSAVKQALAEAHVIGDVRKYFESKGVDLTKFSQLKSTNQRDDKVILVKNFPFGTTREELGEMFLPYGKLERLLMPPAGTIAIVQFRDTTSARAAFTKLSYKRFKDGIIYLERGPKDCFTKPAEADDLINNTSAKEEENPVEVKPSSNDLMEANKDVTEGSSNAHDEDVIDGPTVSIFIKNLNFSTTNQNLTDRFKVFTGFVVAQVKTKPDPKHQGKTLSMGFGFVEFRTKEQANAVIAAMDGTVIDGHKIQLKLSHRQASQSGNTKTKSNKKSGKIIVKNLPFEATRKDVFELFNSFGQLKSVRVPKKFDKSARGFAFVEFLLPKEAENAMDQLHGVHLLGRRLVMQYAEEDAVDAEEEIARMTKKVRKQVATNEMAALRNGGGRKKLDVDDEENEGF
B2: Nop9 (protein, UniProt P47077 1-666)
chain: MGKTKTRGRRHQDKQRKDEFEPSSNSAKEHIQQEESTYNDEAEIKETQPQMFFGVLDREELEYFKQAESTLQLDAFEAPEEKFQFVTSIIEEAKGKELKLVTSQITSKLMERVILECDETQLKDIFQSFNGVFFGLSCHKYASHVLETLFVRSAALVERELLTPSFDNNEKEGPYVTMENMFLFMLNELKPHLKTMMNHQYASHVLRLLILILSSKTLPNSTKANSTLRSKKSKIARKMIDIKDNDDFNKVYQTPESFKSELRDIITTLYKGFTNGAESRSDISQSTITKFREYSVDKVASPVIQLIIQVEGIFDRDRSFWRLVFNTADEKDPKEESFLEYLLSDPVGSHFLENVIGSARLKYVERLYRLYMKDRIVKLAKRDTTGAFVVRALLEHLKEKDVKQILDAVVPELSMLLNSNMDFGTAIINASNKQGGYLRDDVIAQLIQKYYPEKSDAKNILESCLLLSASTLGNTRDDWPTAEERRRSVFLEQLIDYDDKFLNITIDSMLALPEERLIQMCYHGVFSHVVEHVLQTTRVDIIKRKMLLNILSKESVNLACNVYGSHIMDKLWEFTAKLTLYKERIARALVLETEKVKNSIYGRQVWKNWKLELYVRKMWDWKKLIKEQEFEIFPNSKPLQPKPEKHSRERNNSKEGSAFKKQKHYR
B3: Gar1 (protein, UniProt P28007 1-205)
chain: MSFRGGNRGGRGGFRGGFRGGRTGSARSFQQGPPDTVLEMGAFLHPCEGDIVCRSINTKIPYFNAPIYLENKTQVGKVDEILGPLNEVFFTIKCGDGVQATSFKEGDKFYIAADKLLPIERFLPKPKVVGPPKPKNKKKRSGAPGGRGGASMGRGGSRGGFRGGRGGSSFRGGRGGSSFRGGSRGGSFRGGSRGGSRGGFRGGRR
B4: Nhp2 (protein, UniProt P32495 1-156)
chain: MGKDNKEHKESKESKTVDNYEARMPAVLPFAKPLASKKLNKKVLKTVKKASKAKNVKRGVKEVVKALRKGEKGLVVIAGDISPADVISHIPVLCEDHSVPYIFIPSKQDLGAAGATKRPTSVVFIVPGSNKKKDGKNKEEEYKESFNEVVKEVQAL
B5: Dhr1, Q04217 1-1267 (protein)
chain: MGTYRKRFNEKARSGHMAKLKELKRIRNKQFTRQDENDERVENPDSAPAESSTTEPNANAEILEPLTEEEKKMKKRKLQELFTPKESKVSRLKKKRLDKFIEHQLKREERKTIIGKLQDYKIDTSLLTSSKRLGEGRQTKKEEFKEALSLERQGRGNEQTNEILYEEYEPKVWDEYGEGGSSEDDDGEDDFEASFGSMPKPTDNEEKKSSGFIDHRPAKFGGSGLSFGFSNIKVINKESKTPKKKYNWRQRVEMEELKKHGKEDEMDFDTTSEDDDEEEDQEEEDKMHPSENPLEEVESADSETGSEKFDQNDVANEFKDWANQEIKKLEGRDQELVTPTLNIDYKPIIRKEDLDDGLQEAYVPINENSTRKAFYVEVSRSDEIQKARIQLPVFGEEHKIMEAIHHNDVVIICGETGSGKTTQVPQFLYEAGFGAEDSPDYPGMVGITQPRRVAAVSMAERVANELGDHGHKVGYQIRFDSTAKEDTKVKFMTDGVLLREMMHDFKLTKYSSIIIDEAHERNINTDILIGMLSRCVRLRAKLHKENPIEHKKLKLIIMSATLRVSDFSENKTLFPIAPPVLQVDARQFPVSIHFNRRTAFNYTDEAFRKTCKIHQKLPPGAILVFLTGQQEITHMVKRLRKEFPFKKNSKYNKDLETPVSKMGINSKTTDLEAEDIDFSVQVIDQDKFKSAIRYEEDEGNSGNGEDEEDEEEEGFEEVLTEGQTANDPLYVLPLYSLLPTKEQMRVFQKPPQGSRLCIVATNVAETSLTIPGVRYVVDSGRSKERKYNESNGVQSFEVGWVSKASANQRSGRAGRTGPGHCYRLYSSAVFEHDFEQFSKPEILRMPVESIVLQMKSMAIHNIINFPFPTPPDRVALSKAIQLLQYLGALDNKEMITEDGKKMSLFPLSPRFSKMLLVSDEKACLPYIVAIVSALSVGDPFINEFELGINEISRKPNPDENLDDKIREHDESTPGMDPELKKELRSKFYKSRSQFSKLDKFSDVFRLLSVVSAMDYVPKEQKEIFMKKNFLRGKLMEEIVKLRKQLMYIIKSNTSKENIAVVIRNEDLKSDIPSVIQIKLLKQMICAGFVDHVAVRADVLFPDDAKITNRTSIINIPYIPVLATRTPNIEDCFVYIHPTSILNNLGEMPPKYMLYYSLHLGGNNKTRMNTLCDIASTPLANIARKGLLLTYSKPLTGQGLKTVNLSPTERYCYVVPRFGSTVDNDLKIGWDLNPIAVHQKKQKGQWTVIKFITRKGFQTITGEEKEKK
B6: Dhr1 (protein, UniProt Q04217 1-1267)
chain: B5 chain

Assays:
Test in all cases: co-sedimentation; FLAG eluates of the split-tag purifications on a linear 10–40% sucrose gradient (60 mM Tris-HCl pH 8.0, 50 mM NaCl, 2 mM MgCl2), 16 h at 129,300 × g, 4 °C; fractions by SDS-PAGE, MS and northern blot
[1] = target: Krr1ΔC3-FLAG (Saccharomyces cerevisiae (yeast)) (UniProt P25586)
[2] = target: Krr1 (wild type, second bait of the split-tag purification) (Saccharomyces cerevisiae (yeast)) (UniProt P25586)
[3] = target: T1, protA-TEV-tagged Utp23 (Saccharomyces cerevisiae (yeast)) (UniProt Q12339)
T1 sequence: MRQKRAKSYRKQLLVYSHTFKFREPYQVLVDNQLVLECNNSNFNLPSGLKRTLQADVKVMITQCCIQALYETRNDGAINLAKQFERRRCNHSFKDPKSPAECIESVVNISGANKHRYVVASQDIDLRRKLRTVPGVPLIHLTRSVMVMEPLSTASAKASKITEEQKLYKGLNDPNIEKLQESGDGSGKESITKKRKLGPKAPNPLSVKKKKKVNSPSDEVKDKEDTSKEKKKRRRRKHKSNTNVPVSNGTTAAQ

[4] = target: T2, protA-TEV-tagged Utp23 (Saccharomyces cerevisiae (yeast)), Q12339; conditions: remark: other sources report otherwise
T2 chain: T1 sequence

Row | Binder | binding [1] | binding [2] | binding [3] | binding [4]
1 | B1 | no binding | binds | binds | –
2 | B2 | – | binds | binds | –
3 | B3 | – | – | binds | –
4 | B4 | binds | binds | binds | –
5 | B5 | – | – | – | binds
6 | B6 | binds | – | – | –
